According to patent US9403875B2 (UNIVERSITY OF SOUTHERN CALIFORNIA, priority 2009, dated 2016):

Assay: peptide synthesis
Details: conjugation step, head-to-tail ring, sequence written open

For AmBaSar-RGD, the conjugation yield (run 1) was 80% and the conjugation yield (run 2) was “about 80%”.
